A short description of series [1]: Electrostatic testing of inverted dual-layered organophotoreceptors (QEA PDT-2000), Example 1. The following applies: for Discharge: 0.05 seconds, 2 microjoules/cm^2 at 780 nm; for Dark Decay: 1-second dark decay after charge-up; for Vacc: acceptance voltage, charge-up at 8 kV, ambient temperature; for Vres: residual voltage after discharge.
Series [2] can be described thus: Hole drift mobility by time of flight technique. The following applies: 40:60 with PC; for Mobility µ: at 6.4×10^5 V/cm; for α: parameter characterizing mobility field dependence.
Series [3] in a line: Electrostatic testing of inverted dual-layered organophotoreceptors (QEA PDT-2000), Example 2.

`CCn1c2ccccc2c2cc(C=NN(CCCCCCCCCCN(N=Cc3ccc4c(c3)c3ccccc3n4CC)c3ccccc3)c3ccccc3)ccc21` [B]: in series [1], the Discharge was 398 V, the “Dark Decay” value came to 64 V, the Vacc was 575 V and the Vres is 58 V.

For `CCn1c2ccccc2c2cc(C=NN(CCCCCN(N=Cc3ccc4c(c3)c3ccccc3n4CC)c3ccccc3)c3ccccc3)ccc21` [C], in series [1], the Discharge came to 393 V, the “Dark Decay” value came to 109 V, the Vacc amounted to 512 V and the Vres is on record as 50 V. Moreover, in series [2], the “Mobility Relative to HCTM1” value is given as 1.22 and the “Mobility µ” value is recorded as 1.1×10^-5 at 40:60 with PC cm^2/V.s.

For `C(=NN(CCCCCN(N=Cc1ccc(N(c2ccccc2)c2ccccc2)cc1)c1ccccc1)c1ccccc1)c1ccc(N(c2ccccc2)c2ccccc2)cc1` [Compound M (m=5)], the “Dark Decay” value in series [3] (1-second dark decay after charge-up) was 142 V. This compound gave a Vacc in series [3] (acceptance voltage, charge-up at 8 kV, ambient temperature) of 363 V. The same compound returned a Contrast in series [3] (decrease in voltage one second after discharge, 2 microjoules/cm^2 at 780 nm) of 195 V. The same compound registered a Vres in series [3] (final residual voltage after eraser lamp) of 18 V.

Take `CCCCCCCn1c2ccccc2c2cc(C=NN(CCCCCCCCCCN(N=Cc3ccc4c(c3)c3ccccc3n4CCCCCCC)c3ccccc3)c3ccccc3)ccc21` [E]: in series [1], the Discharge is reported as 89 V, the “Dark Decay” value came to 38 V, the Vacc came to 596 V and the Vres is recorded as 468 V. Besides, in series [2], the “Mobility Relative to HCTM1” value is on record as 1.88, the “Mobility µ” value is listed as 1.7×10^-5 at 40:60 with PC cm^2/V.s and the α is on record as ~0.006.

With `CCCCCCCn1c2ccccc2c2cc(C=NN(CCCCCN(N=Cc3ccc4c(c3)c3ccccc3n4CCCCCCC)c3ccccc3)c3ccccc3)ccc21` [F], in series [1], the Discharge was 322 V, the “Dark Decay” value turned out to be 151 V, the Vacc came out at 560 V and the Vres came out at 91 V. Also, in series [2], the “Mobility Relative to HCTM1” value was found to be 0.72, the “Mobility µ” value is reported as 6.5×10^-6 at 40:60 with PC cm^2/V.s and the α is recorded as 0.0053.
